{"source": "PubChem BioAssay AID504791 | Drosophila RNAi Screening Center – 2011", "test": "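Genes of the fly required for silencing by miRNA, siRNA or endo-siRNA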 (primary screen)", "cell system": "Drosophila S2-derived reporter cells", "reagent": "long dsRNA against Drosophila genes, about 150-250 ng dsRNA per well (siRNA assay); about 80-120 ng (miRNA assay)", "time to read-out": "about 5 days (siRNA assay); about 4 days (miRNA assay)", "challenge": "copper sulfate induction of reporters: 25 µM (siRNA assay); 200 mM stated (miRNA assay), 1-2 days before reading", "measurement": "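Dual luciferase assay: Renilla to firefly signal ratio in each well, scaled to the mean ratio of its plate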", "units": "stable assay Renilla, run 1 in luminescence; stable assay firefly, run 1 in luminescence", "rule for the call": "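a well was a first-pass pick when its plate-scaled ratio rose above 1.5 (siRNA assay) or 1.6 (miRNA assay), or dropped below 0.6; a gene counted only if two separate dsRNAs agreed on retest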", "note": "In all, the deposit lists about 23,000 reagents; shown is a random part of those that have a named target and a result. Over the whole deposit, 199 (0.86%) are marked active. 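Plate-scaled ratios behind the calls are not deposited; printed light signals are raw; many rows marked increased or decreased are still called inactive.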 Entries without a mark were called inactive. Reagent sequences are not shown. Not given: the direction of the score."}
{"Gene": "CG7341", "DRSC id": "DRSC10818", "stable assay Renilla, run 1": 7834, "stable assay firefly, run 1": 3.54e5}
{"Gene": "CG34301", "DRSC id": "DRSC12704", "stable assay Renilla, run 1": 6558, "stable assay firefly, run 1": 4.04e5}
{"Gene": "CG11596", "DRSC id": "DRSC18540", "stable assay Renilla, run 1": 8546, "stable assay firefly, run 1": 4.78e5}
{"Gene": "Kaz", "DRSC id": "DRSC14637", "stable assay Renilla, run 1": 6312, "stable assay firefly, run 1": 3.14e5}
{"Gene": "eEFSec", "DRSC id": "DRSC04571", "stable assay Renilla, run 1": 6874, "stable assay firefly, run 1": 3.56e5}
{"Gene": "CG42703", "DRSC id": "DRSC03973", "stable assay Renilla, run 1": 4131, "stable assay firefly, run 1": 3.79e5}
{"Gene": "Gba1a", "DRSC id": "DRSC21494", "stable assay Renilla, run 1": 8979, "stable assay firefly, run 1": 4.11e5}
{"Gene": "CG31198", "DRSC id": "DRSC15891", "stable assay Renilla, run 1": 9112, "stable assay firefly, run 1": 4.51e5}
{"Gene": "Pdha", "DRSC id": "DRSC18413", "stable assay Renilla, run 1": 5686, "stable assay firefly, run 1": 2.79e5}
{"Gene": "ref(2)P", "DRSC id": "DRSC03601", "stable assay Renilla, run 1": 7256, "stable assay firefly, run 1": 4.35e5}
{"Gene": "RpS18", "DRSC id": "DRSC07540", "stable assay Renilla, run 1": 6403, "stable assay firefly, run 1": 2.61e5}
{"Gene": "CG5181", "DRSC id": "DRSC02825", "stable assay Renilla, run 1": 20518, "stable assay firefly, run 1": 1.04e6}
{"Gene": "IntS12", "DRSC id": "DRSC15818", "stable assay Renilla, run 1": 8746, "stable assay firefly, run 1": 5.10e5}
{"Gene": "TFAM", "DRSC id": "DRSC15552", "stable assay Renilla, run 1": 7487, "stable assay firefly, run 1": 3.67e5}

5 entries from above, sorted by “stable assay Renilla, run 1”, descending.
{"Gene": "CG31198", "DRSC id": "DRSC15891", "stable assay Renilla, run 1": 9112, "stable assay firefly, run 1": 4.51e5}
{"Gene": "Gba1a", "DRSC id": "DRSC21494", "stable assay Renilla, run 1": 8979, "stable assay firefly, run 1": 4.11e5}
{"Gene": "ref(2)P", "DRSC id": "DRSC03601", "stable assay Renilla, run 1": 7256, "stable assay firefly, run 1": 4.35e5}
{"Gene": "RpS18", "DRSC id": "DRSC07540", "stable assay Renilla, run 1": 6403, "stable assay firefly, run 1": 2.61e5}
{"Gene": "Pdha", "DRSC id": "DRSC18413", "stable assay Renilla, run 1": 5686, "stable assay firefly, run 1": 2.79e5}

Additional results follow.
{"Gene": "tgo", "DRSC id": "DRSC17077", "stable assay Renilla, run 1": 8099, "stable assay firefly, run 1": 3.36e5}
{"Gene": "hth", "DRSC id": "DRSC16967", "stable assay Renilla, run 1": 6651, "stable assay firefly, run 1": 3.87e5}
{"Gene": "CG7806", "DRSC id": "DRSC03071", "stable assay Renilla, run 1": 53038, "stable assay firefly, run 1": 4.52e5}
{"Gene": "CG15861", "DRSC id": "DRSC04274", "stable assay Renilla, run 1": 6948, "stable assay firefly, run 1": 5.21e5}
{"Gene": "mRpS10", "DRSC id": "DRSC15557", "stable assay Renilla, run 1": 6572, "stable assay firefly, run 1": 4.14e5}
{"Gene": "Cyp6a2", "DRSC id": "DRSC05014", "stable assay Renilla, run 1": 7406, "stable assay firefly, run 1": 5.16e5}
{"Gene": "CG17270", "DRSC id": "DRSC15209", "stable assay Renilla, run 1": 8574, "stable assay firefly, run 1": 4.38e5}
{"Gene": "mei-P26", "DRSC id": "DRSC17735", "stable siRNA reporter change": "reporter ratio raised past the hit cutoff", "stable assay Renilla, run 1": 6563, "stable assay firefly, run 1": 2.40e5}
{"Gene": "mei-P26", "DRSC id": "DRSC23049", "stable assay Renilla, run 1": 4935, "stable assay firefly, run 1": 2.76e5}
{"Gene": "Ras85D", "DRSC id": "DRSC16814", "stable assay Renilla, run 1": 4344, "stable assay firefly, run 1": 2.55e5}
{"Gene": "AstA-R1", "DRSC id": "DRSC17278", "stable assay Renilla, run 1": 8083, "stable assay firefly, run 1": 3.50e5}
{"Gene": "AstA-R1", "DRSC id": "DRSC17727", "stable siRNA reporter change": "reporter ratio lowered past the hit cutoff", "stable assay Renilla, run 1": 5444, "stable assay firefly, run 1": 5.02e5}
{"Gene": "CG34125", "DRSC id": "DRSC00850", "stable assay Renilla, run 1": 5295, "stable assay firefly, run 1": 4.50e5}
{"Gene": "sesB", "DRSC id": "DRSC20371", "stable assay Renilla, run 1": 4979, "stable assay firefly, run 1": 4.29e5}
